Reference: the supplement of paper PMC6411743
± gives the standard deviation of the averaged measurements. This is a selection; strong and weak results do not stand in their true shares.

Sequences of proteins named here, by UniProt entry; tags and fusion partners are left off. A change or cut given only in a name is not applied to a line headed by its entry.
UniProt Q9NX46: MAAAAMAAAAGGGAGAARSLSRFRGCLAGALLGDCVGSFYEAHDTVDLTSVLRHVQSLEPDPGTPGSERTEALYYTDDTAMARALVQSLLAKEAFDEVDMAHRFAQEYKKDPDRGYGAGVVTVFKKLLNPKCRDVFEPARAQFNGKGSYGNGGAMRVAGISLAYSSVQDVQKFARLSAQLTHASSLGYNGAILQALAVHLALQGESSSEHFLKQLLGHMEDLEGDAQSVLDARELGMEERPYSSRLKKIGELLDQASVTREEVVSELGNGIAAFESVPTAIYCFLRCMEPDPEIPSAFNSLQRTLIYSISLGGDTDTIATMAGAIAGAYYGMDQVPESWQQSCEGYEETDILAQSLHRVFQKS
UniProt Q9NS69: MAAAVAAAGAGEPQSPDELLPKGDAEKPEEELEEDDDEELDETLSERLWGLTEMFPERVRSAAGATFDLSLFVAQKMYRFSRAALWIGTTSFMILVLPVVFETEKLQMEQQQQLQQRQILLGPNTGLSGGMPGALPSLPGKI
UniProt Q9NSY1, whole entry, looked up: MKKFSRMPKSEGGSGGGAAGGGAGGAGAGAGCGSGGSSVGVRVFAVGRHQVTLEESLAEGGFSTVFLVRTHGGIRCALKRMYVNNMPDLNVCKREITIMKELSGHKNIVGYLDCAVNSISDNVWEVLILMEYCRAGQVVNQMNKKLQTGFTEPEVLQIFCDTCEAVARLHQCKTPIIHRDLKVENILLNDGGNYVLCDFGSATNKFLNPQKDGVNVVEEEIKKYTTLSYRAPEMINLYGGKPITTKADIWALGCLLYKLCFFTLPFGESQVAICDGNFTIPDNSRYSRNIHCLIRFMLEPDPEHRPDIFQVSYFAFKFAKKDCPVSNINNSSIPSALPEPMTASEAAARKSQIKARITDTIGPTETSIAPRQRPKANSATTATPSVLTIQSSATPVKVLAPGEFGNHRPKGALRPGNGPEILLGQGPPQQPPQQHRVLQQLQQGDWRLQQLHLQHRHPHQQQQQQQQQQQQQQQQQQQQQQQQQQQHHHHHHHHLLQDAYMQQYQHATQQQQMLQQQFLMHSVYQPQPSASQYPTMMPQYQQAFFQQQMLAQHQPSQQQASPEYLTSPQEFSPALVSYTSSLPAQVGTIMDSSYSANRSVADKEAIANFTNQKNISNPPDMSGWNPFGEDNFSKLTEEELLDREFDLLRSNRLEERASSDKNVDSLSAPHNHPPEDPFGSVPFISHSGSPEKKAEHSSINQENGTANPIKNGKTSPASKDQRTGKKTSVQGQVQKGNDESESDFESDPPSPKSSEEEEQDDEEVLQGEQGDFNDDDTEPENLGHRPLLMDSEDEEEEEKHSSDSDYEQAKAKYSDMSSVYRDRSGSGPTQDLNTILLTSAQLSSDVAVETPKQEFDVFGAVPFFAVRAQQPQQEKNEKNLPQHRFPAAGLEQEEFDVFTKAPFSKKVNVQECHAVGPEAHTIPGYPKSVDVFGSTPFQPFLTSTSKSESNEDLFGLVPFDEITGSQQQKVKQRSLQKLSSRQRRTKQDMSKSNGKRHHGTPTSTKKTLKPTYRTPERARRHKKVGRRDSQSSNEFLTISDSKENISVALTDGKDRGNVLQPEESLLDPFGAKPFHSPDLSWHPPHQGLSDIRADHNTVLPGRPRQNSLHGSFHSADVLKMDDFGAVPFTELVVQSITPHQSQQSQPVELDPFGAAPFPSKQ
UniProt Q9NX08, whole entry: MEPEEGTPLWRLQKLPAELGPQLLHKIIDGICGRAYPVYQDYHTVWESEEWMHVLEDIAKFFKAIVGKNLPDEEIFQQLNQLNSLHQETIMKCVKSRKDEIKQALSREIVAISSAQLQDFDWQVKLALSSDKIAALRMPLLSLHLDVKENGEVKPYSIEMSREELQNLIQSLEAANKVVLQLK
UniProt Q9P0U3: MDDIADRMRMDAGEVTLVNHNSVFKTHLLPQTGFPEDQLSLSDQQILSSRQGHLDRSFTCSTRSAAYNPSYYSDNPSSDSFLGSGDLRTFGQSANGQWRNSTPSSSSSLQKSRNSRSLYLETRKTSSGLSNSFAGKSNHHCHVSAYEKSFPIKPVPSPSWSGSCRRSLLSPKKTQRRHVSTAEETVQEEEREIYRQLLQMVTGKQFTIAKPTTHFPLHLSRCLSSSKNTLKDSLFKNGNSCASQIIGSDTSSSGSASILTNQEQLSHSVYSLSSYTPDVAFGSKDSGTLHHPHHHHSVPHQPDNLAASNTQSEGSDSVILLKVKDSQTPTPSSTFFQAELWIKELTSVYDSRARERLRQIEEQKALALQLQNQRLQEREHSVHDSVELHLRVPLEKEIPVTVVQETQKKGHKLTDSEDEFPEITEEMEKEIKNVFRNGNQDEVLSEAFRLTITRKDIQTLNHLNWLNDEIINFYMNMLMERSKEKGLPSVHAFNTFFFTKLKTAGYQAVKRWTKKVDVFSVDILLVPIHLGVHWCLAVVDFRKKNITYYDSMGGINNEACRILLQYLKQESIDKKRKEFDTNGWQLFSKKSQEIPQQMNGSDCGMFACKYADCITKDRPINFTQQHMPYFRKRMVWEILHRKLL
UniProt Q9NSI2: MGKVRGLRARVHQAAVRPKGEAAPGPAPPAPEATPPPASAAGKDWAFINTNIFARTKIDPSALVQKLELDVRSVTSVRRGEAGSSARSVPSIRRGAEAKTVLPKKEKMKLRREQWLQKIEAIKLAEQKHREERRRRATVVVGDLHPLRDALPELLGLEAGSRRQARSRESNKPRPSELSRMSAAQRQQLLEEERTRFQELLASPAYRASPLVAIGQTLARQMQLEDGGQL
UniProt Q9NRP2: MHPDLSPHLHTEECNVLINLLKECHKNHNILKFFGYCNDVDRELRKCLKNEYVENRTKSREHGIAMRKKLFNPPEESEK
UniProt Q9P0J0, whole entry: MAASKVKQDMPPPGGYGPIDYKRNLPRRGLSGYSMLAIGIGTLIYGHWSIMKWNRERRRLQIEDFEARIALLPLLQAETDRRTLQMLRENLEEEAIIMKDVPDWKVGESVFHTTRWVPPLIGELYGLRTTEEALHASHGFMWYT
UniProt Q9NRY4: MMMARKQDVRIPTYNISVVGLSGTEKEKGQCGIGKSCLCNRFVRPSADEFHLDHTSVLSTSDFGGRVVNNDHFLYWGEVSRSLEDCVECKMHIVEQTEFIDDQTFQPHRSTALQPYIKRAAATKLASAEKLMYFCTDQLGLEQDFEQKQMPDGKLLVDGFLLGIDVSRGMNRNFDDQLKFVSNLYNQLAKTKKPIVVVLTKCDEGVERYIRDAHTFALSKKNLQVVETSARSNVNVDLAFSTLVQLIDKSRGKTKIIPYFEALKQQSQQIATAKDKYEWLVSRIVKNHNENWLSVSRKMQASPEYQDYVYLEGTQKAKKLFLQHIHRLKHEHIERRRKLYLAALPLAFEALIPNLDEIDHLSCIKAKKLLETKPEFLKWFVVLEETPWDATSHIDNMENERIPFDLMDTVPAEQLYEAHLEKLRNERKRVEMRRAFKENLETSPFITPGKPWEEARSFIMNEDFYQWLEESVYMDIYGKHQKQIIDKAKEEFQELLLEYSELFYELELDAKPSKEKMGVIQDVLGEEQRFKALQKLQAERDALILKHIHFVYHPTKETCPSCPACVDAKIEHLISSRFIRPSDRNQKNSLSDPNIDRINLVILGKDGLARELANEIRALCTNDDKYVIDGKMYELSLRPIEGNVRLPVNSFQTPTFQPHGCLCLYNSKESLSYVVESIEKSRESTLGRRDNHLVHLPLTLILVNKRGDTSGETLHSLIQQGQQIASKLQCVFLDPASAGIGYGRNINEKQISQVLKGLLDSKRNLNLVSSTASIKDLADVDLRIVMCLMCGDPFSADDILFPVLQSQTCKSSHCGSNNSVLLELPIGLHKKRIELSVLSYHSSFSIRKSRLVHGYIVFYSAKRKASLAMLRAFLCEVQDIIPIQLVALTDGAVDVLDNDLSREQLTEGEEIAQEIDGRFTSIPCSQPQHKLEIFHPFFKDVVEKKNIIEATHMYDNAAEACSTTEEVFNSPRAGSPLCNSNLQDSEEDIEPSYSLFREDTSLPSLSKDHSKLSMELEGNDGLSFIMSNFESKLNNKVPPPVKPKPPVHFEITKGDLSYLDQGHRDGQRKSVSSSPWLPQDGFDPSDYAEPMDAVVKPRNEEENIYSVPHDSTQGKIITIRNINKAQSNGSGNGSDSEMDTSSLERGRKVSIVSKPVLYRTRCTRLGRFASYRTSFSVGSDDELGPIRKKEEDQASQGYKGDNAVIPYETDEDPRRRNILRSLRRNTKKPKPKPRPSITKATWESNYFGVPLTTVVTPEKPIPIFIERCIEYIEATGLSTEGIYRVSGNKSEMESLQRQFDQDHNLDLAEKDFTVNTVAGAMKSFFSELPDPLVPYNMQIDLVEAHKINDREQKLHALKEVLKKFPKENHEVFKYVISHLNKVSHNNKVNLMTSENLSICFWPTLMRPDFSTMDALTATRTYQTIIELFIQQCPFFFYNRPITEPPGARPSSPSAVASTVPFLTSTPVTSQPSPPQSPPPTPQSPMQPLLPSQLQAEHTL
UniProt Q9NZI8, whole entry: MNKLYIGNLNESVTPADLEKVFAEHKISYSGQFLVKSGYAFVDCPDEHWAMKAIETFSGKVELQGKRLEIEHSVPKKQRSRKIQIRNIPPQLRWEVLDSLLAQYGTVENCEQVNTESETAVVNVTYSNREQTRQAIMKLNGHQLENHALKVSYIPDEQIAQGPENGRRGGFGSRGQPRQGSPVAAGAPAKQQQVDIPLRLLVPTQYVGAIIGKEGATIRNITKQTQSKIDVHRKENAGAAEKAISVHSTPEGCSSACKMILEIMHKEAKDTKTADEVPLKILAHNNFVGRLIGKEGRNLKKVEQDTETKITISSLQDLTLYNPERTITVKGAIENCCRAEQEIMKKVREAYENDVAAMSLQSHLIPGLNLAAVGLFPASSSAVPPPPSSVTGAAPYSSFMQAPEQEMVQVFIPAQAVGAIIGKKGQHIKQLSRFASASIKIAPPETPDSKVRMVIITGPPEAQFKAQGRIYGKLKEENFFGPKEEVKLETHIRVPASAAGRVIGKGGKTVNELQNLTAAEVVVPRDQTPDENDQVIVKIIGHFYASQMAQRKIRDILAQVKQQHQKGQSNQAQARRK
UniProt Q9NXR1: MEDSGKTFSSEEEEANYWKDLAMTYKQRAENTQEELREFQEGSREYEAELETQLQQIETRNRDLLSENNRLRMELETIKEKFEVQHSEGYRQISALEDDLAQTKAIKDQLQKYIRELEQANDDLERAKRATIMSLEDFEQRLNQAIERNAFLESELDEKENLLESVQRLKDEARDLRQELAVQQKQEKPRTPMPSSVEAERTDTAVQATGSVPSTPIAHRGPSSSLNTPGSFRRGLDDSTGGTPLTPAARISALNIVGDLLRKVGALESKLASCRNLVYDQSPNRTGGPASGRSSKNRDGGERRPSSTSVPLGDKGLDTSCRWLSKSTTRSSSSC
UniProt Q9NVM9, whole entry: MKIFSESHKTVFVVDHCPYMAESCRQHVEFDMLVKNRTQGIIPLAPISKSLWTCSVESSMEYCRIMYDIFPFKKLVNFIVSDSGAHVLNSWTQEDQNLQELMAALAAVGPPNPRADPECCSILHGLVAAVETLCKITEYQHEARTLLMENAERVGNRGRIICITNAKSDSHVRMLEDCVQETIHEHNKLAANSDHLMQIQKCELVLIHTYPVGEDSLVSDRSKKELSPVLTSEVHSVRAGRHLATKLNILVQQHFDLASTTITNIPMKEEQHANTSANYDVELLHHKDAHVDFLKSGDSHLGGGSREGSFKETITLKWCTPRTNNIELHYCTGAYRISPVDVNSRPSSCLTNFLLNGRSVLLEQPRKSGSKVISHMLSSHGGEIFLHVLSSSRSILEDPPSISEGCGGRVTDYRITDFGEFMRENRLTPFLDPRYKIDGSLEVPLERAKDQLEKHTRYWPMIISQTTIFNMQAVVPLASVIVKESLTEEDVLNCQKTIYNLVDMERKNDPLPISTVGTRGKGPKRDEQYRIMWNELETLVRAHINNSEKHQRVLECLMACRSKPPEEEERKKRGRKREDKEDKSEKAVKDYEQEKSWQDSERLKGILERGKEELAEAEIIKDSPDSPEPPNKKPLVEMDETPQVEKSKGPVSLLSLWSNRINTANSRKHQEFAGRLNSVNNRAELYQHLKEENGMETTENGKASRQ
UniProt Q9NPQ8: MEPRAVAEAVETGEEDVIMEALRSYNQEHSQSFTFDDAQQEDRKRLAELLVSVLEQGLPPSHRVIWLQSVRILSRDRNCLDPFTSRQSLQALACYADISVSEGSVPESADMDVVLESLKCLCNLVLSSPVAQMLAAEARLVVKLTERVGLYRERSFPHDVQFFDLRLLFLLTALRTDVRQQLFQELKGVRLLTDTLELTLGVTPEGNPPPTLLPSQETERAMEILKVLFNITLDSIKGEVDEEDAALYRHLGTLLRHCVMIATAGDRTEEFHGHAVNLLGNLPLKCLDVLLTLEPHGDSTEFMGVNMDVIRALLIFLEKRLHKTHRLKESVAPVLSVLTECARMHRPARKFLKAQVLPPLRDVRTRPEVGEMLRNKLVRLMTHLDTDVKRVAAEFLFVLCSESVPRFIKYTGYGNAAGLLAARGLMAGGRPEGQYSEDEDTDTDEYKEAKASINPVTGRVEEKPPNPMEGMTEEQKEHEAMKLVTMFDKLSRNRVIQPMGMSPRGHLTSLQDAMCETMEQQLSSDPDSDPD

Compound: Nc1ncnc2c1ncn2[C@@H]1O[C@H](COP(=O)(O)OP(=O)(O)OP(=O)(O)O)[C@@H](O)[C@H]1O [adenosine triphosphate]
Test: NP40-soluble protein abundance relative to vehicle (solubility fold change) (ratio); higher = more soluble protein in presence of ATP
Procedure, shortened: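 Jurkat crude lysate prepared with a Dounce homogeniser was treated at eight concentrations spanning 0.1 to 10 mM, 10 min at room temperature then 3 min at 37 °C. Solubilisation with 0.8% NP40 and benzonase and ultracentrifugation preceded TMT labelling of the supernatant for LC-MS/MS. Fold change against the detergent-processed vehicle was determined per replicate from vsn-normalised intensities, across three independent experiments.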

Target	NP40-soluble protein abundance (concentration: 1mM)	NP40-soluble protein abundance (concentration: 2mM)	NP40-soluble protein abundance (concentration: 4mM)	NP40-soluble protein abundance (concentration: 6mM)	NP40-soluble protein abundance (concentration: 8mM)	NP40-soluble protein abundance (concentration: 10mM)
CUTC (UniProt Q9NTM9)	0.967 ± 0.12	0.956 ± 0.086	0.952 ± 0.053	0.926 ± 0.12	0.952 ± 0.052	0.939 ± 0.05
WDR70 (UniProt Q9NW82)	0.99 ± 0.04	0.984 ± 0.019	0.97 ± 0.026	0.967 ± 0.032	0.968 ± 0.033	0.985 ± 0.013
EXOSC4 (UniProt Q9NPD3)	1.12 ± 0.14	1.12 ± 0.08	1.16 ± 0.08	1.12 ± 0.097	1.23 ± 0.086	1.22 ± 0.036
OCIAD1 (UniProt Q9NX40)	0.967 ± 0.013	0.977 ± 0.034	0.963 ± 0.03	0.941 ± 0.032	0.965 ± 0.047	0.933 ± 0.045
MYO5C (UniProt Q9NQX4)	0.997 ± 0.13	1.01 ± 0.17	1.09 ± 0.14	1.05 ± 0.085	1.13 ± 0.27	1.1 ± 0.31
UniProt Q9NVK5-2	0.979 ± 0.088	0.926 ± 0.062	0.944 ± 0.069	0.971 ± 0.13	0.957 ± 0.063	0.926 ± 0.082
ABCF3 (UniProt Q9NUQ8)	1.08 ± 0.029	1.08 ± 0.026	1.06 ± 0.035	1.01 ± 0.075	1.06 ± 0.018	1.06 ± 0.059
ADPRHL2 (UniProt Q9NX46)	0.951 ± 0.037	0.977 ± 0.04	0.971 ± 0.06	0.926 ± 0.069	0.939 ± 0.016	0.95 ± 0.048
UniProt Q9P0L0 and related entries	0.965 ± 0.057	0.949 ± 0.014	0.921 ± 0.022	0.999 ± 0.026	0.9425 ± 0.0056	0.916 ± 0.032
UniProt Q9NXK8 and related entries	1.02 ± 0.1	1.03 ± 0.087	1.02 ± 0.11	0.979 ± 0.11	1.04 ± 0.058	1.06 ± 0.054
CHMP5 (UniProt Q9NZZ3)	0.945 ± 0.097	0.917 ± 0.057	0.912 ± 0.1	0.94 ± 0.068	0.936 ± 0.035	0.819 ± 0.12
CCDC59 (UniProt Q9P031)	0.975 ± 0.12	0.978 ± 0.095	0.969 ± 0.082	1.02 ± 0.089	0.965 ± 0.045	0.933 ± 0.12
UniProt Q9NYU2 and related entries	1.04 ± 0.09	1 ± 0.079	0.994 ± 0.06	0.96 ± 0.095	1.03 ± 0.055	0.985 ± 0.065
TOMM22 (UniProt Q9NS69)	0.946 ± 0.085	0.948 ± 0.048	0.9802 ± 0.005	1 ± 0.12	0.941 ± 0.01	0.858 ± 0.11
LZTFL1 (UniProt Q9NQ48)	0.994 ± 0.099	0.935 ± 0.022	0.966 ± 0.018	0.984 ± 0.1	1.03 ± 0.046	0.84 ± 0.13
MED4 (UniProt Q9NPJ6)	0.986 ± 0.073	1 ± 0.061	0.986 ± 0.054	1.04 ± 0.079	1 ± 0.023	0.943 ± 0.098
UniProt Q9NRG7-2|Q9NRG7	1.09 ± 0.043	1.081 ± 0.0052	1.04 ± 0.022	1.07 ± 0.064	1.04 ± 0.054	1.1 ± 0.049
UniProt Q9NPH0 and related entries	0.953 ± 0.15	1.09 ± 0.018	1.11 ± 0.085	1.05 ± 0.021	1.08 ± 0.071	1.02 ± 0.15
GEMIN8 (UniProt Q9NWZ8)	0.978 ± 0.12	0.875 ± 0.14	0.885 ± 0.15	0.9 ± 0.28	0.965 ± 0.2	0.935 ± 0.17
UniProt Q9NQS7 and related entries	1.155 ± 0.0074	1.16 ± 0.026	1.28 ± 0.051	1.35 ± 0.069	1.36 ± 0.066	1.4 ± 0.06

Target	NP40-soluble protein abundance (concentration: 1mM)	NP40-soluble protein abundance (concentration: 2mM)	NP40-soluble protein abundance (concentration: 4mM)	NP40-soluble protein abundance (concentration: 6mM)	NP40-soluble protein abundance (concentration: 8mM)	NP40-soluble protein abundance (concentration: 10mM)
UniProt Q9NXF7	1 ± 0.032	0.995 ± 0.034	0.965 ± 0.031	0.972 ± 0.041	0.954 ± 0.035	0.923 ± 0.074
UniProt Q9NTX5 and related entries	0.94 ± 0.015	0.938 ± 0.038	0.931 ± 0.029	0.933 ± 0.036	0.93 ± 0.029	0.93 ± 0.034
UniProt Q9NUY8 and related entries	0.968 ± 0.011	1.03 ± 0.025	0.961 ± 0.037	1 ± 0.029	0.957 ± 0.051	0.98 ± 0.042
UniProt Q9NX04 and related entries	1.23 ± 0.11	1.31 ± 0.066	1.27 ± 0.21	1.29 ± 0.19	1.28 ± 0.22	1.13 ± 0.1
UniProt Q9NZ09 and related entries	0.955 ± 0.12	0.938 ± 0.035	0.976 ± 0.1	0.978 ± 0.064	0.942 ± 0.071	0.964 ± 0.11
UniProt Q9NSG2 and related entries	1.03 ± 0.031	0.994 ± 0.039	0.952 ± 0.025	1.04 ± 0.068	0.99 ± 0.087	1.01 ± 0.073
UniProt Q9NSY1	1.18 ± 0.032	1.29 ± 0.032	1.35 ± 0.082	1.44 ± 0.08	1.44 ± 0.081	1.55 ± 0.093
COMMD8 (UniProt Q9NX08)	1.04 ± 0.11	0.929 ± 0.037	0.914 ± 0.049	0.938 ± 0.056	0.951 ± 0.029	0.836 ± 0.035
VPS18 (UniProt Q9P253)	1.06 ± 0.056	1.03 ± 0.02	1.02 ± 0.051	1 ± 0.049	1.06 ± 0.048	1.01 ± 0.018
SMYD2 (UniProt Q9NRG4)	1.09 ± 0.12	1.07 ± 0.063	1.09 ± 0.065	1.04 ± 0.082	1.12 ± 0.069	1.04 ± 0.063
ZDHHC18 (UniProt Q9NUE0)	1.02 ± 0.12	1.02 ± 0.086	1.06 ± 0.12	1.05 ± 0.13	0.948 ± 0.11	0.984 ± 0.12
UniProt Q9NV56	0.972 ± 0.029	1 ± 0.038	1 ± 0.045	1.09 ± 0.067	1.01 ± 0.036	1.01 ± 0.021
UniProt Q9P0U3 and related entries	1.04 ± 0.071	1.03 ± 0.15	1.03 ± 0.13	1.06 ± 0.19	1.06 ± 0.15	1.11 ± 0.17
UniProt Q9NSI2 and related entries	1.02 ± 0.045	0.935 ± 0.018	0.91 ± 0.08	0.873 ± 0.066	0.882 ± 0.038	0.884 ± 0.063
UniProt Q9NRP2	0.992 ± 0.26	0.906 ± 0.16	0.933 ± 0.15	0.969 ± 0.16	0.831 ± 0.16	0.796 ± 0.18
UniProt Q9P0J0 and related entries	1.04 ± 0.012	0.986 ± 0.027	0.938 ± 0.023	0.915 ± 0.045	1.008 ± 0.0088	0.901 ± 0.046
GTSE1 (UniProt Q9NYZ3)	1.01 ± 0.12	1.03 ± 0.11	1.1 ± 0.14	1.06 ± 0.23	1.01 ± 0.091	1.06 ± 0.15
UniProt Q9NRY4	0.994 ± 0.038	0.984 ± 0.021	1.02 ± 0.023	0.953 ± 0.06	0.997 ± 0.019	0.964 ± 0.036
UniProt Q9P1F3	0.966 ± 0.18	1.04 ± 0.096	0.962 ± 0.21	0.997 ± 0.12	0.806 ± 0.15	0.835 ± 0.055
UniProt Q9NQ11 and related entries	0.92 ± 0.1	0.942 ± 0.047	0.957 ± 0.13	0.96 ± 0.15	0.895 ± 0.11	0.942 ± 0.14

Quoted at random: three records from the list.
Target	NP40-soluble protein abundance (concentration: 1mM)	NP40-soluble protein abundance (concentration: 2mM)	NP40-soluble protein abundance (concentration: 4mM)	NP40-soluble protein abundance (concentration: 6mM)	NP40-soluble protein abundance (concentration: 8mM)	NP40-soluble protein abundance (concentration: 10mM)
UniProt Q9NSG2 and related entries	1.03 ± 0.031	0.994 ± 0.039	0.952 ± 0.025	1.04 ± 0.068	0.99 ± 0.087	1.01 ± 0.073
GTSE1 (UniProt Q9NYZ3)	1.01 ± 0.12	1.03 ± 0.11	1.1 ± 0.14	1.06 ± 0.23	1.01 ± 0.091	1.06 ± 0.15
UniProt Q9NTX5 and related entries	0.94 ± 0.015	0.938 ± 0.038	0.931 ± 0.029	0.933 ± 0.036	0.93 ± 0.029	0.93 ± 0.034

Remaining list, next part:

Target	NP40-soluble protein abundance (concentration: 1mM)	NP40-soluble protein abundance (concentration: 2mM)	NP40-soluble protein abundance (concentration: 4mM)	NP40-soluble protein abundance (concentration: 6mM)	NP40-soluble protein abundance (concentration: 8mM)	NP40-soluble protein abundance (concentration: 10mM)
UniProt Q9NXR5 and related entries	0.971 ± 0.049	0.929 ± 0.088	1.01 ± 0.11	1.07 ± 0.12	0.931 ± 0.019	0.995 ± 0.064
UniProt Q9NUI1 and related entries	0.987 ± 0.029	0.991 ± 0.036	1.029 ± 0.0083	0.988 ± 0.018	1.02 ± 0.019	1.05 ± 0.04
UniProt Q9NUP7	0.957 ± 0.037	0.983 ± 0.033	0.955 ± 0.027	0.961 ± 0.03	0.95 ± 0.016	0.944 ± 0.026
TBC1D13 (UniProt Q9NVG8)	1.02 ± 0.071	1.01 ± 0.042	1.01 ± 0.038	0.985 ± 0.077	1.02 ± 0.058	0.985 ± 0.026
UniProt Q9NPL8	0.988 ± 0.027	0.962 ± 0.02	0.948 ± 0.047	0.953 ± 0.015	0.968 ± 0.049	0.991 ± 0.035
UniProt Q9NW15-5|C9J670 and related entries	0.982 ± 0.11	1.05 ± 0.14	0.911 ± 0.07	0.958 ± 0.14	1.02 ± 0.17	0.939 ± 0.074
C9orf78 (UniProt Q9NZ63)	0.898 ± 0.039	0.904 ± 0.0054	0.88 ± 0.014	0.935 ± 0.029	0.901 ± 0.028	0.873 ± 0.027
UniProt Q9NXE8	1.11 ± 0.08	1.11 ± 0.043	1.09 ± 0.1	1.11 ± 0.052	1.13 ± 0.089	1.21 ± 0.021
IGF2BP1 (UniProt Q9NZI8)	0.9816 ± 0.0045	0.979 ± 0.024	0.974 ± 0.016	1.01 ± 0.042	1 ± 0.024	0.996 ± 0.022
PDRG1 (UniProt Q9NUG6)	0.997 ± 0.066	0.947 ± 0.035	0.942 ± 0.049	0.965 ± 0.091	1.01 ± 0.034	0.892 ± 0.081
UniProt Q9NPA3	1.08 ± 0.072	1 ± 0.06	1.02 ± 0.057	0.991 ± 0.1	0.992 ± 0.063	0.947 ± 0.091
PNO1 (UniProt Q9NRX1)	0.966 ± 0.047	1.06 ± 0.095	1.04 ± 0.11	1.13 ± 0.12	1.13 ± 0.14	1.29 ± 0.19
UniProt Q9NY93 and related entries	0.995 ± 0.046	1.05 ± 0.044	1.08 ± 0.052	1.06 ± 0.042	1.03 ± 0.036	1.11 ± 0.11
UniProt Q9NXR1 and related entries	0.958 ± 0.11	0.973 ± 0.061	0.997 ± 0.034	0.983 ± 0.081	0.915 ± 0.05	0.927 ± 0.077
UniProt Q9NZ01	1.03 ± 0.15	0.976 ± 0.097	0.964 ± 0.076	0.942 ± 0.076	1.04 ± 0.028	1.02 ± 0.09
KCTD5 (UniProt Q9NXV2)	0.9774 ± 0.0046	0.994 ± 0.081	0.98 ± 0.023	0.938 ± 0.11	0.933 ± 0.099	0.96 ± 0.07
UniProt Q9NVM9	1.03 ± 0.021	1.03 ± 0.019	1.04 ± 0.011	1.08 ± 0.033	1.08 ± 0.019	1.07 ± 0.035
UniProt Q9NPQ8 and related entries	0.95 ± 0.025	0.973 ± 0.016	0.974 ± 0.025	0.947 ± 0.03	0.914 ± 0.024	0.969 ± 0.011
KLHL11 (UniProt Q9NVR0)	1.09 ± 0.11	1.07 ± 0.14	1.02 ± 0.12	0.977 ± 0.13	1.1 ± 0.15	0.982 ± 0.085
POLE3 (UniProt Q9NRF9)	0.942 ± 0.14	0.914 ± 0.074	0.991 ± 0.13	0.961 ± 0.16	0.882 ± 0.052	0.822 ± 0.17
